The target of assay [1] is T1, Flag-tagged SHARPIN R274W mutant (UniProt Q9H0F6).
T1 sequence: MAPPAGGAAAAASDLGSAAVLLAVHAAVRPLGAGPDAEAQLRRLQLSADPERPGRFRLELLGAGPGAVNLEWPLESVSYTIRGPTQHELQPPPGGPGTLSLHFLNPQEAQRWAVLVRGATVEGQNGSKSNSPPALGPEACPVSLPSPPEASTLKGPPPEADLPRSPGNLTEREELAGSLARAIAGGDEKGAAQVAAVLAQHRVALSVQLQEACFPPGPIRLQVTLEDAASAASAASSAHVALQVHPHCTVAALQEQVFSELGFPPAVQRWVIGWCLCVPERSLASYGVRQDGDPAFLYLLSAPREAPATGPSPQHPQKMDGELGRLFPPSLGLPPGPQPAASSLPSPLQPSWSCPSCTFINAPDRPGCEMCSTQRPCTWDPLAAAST
Nature of the assay: co-IP; 293T cells transiently co-transfected with Flag-tagged SHARPIN (WT or R274W) and Myc-tagged HOIP; immunoprecipitated with anti-Flag antibody, western blot (Fig. 4B). In general terms: Immunoblotting shows a protein as a band on a membrane.

Amino acid sequences for entries named in this document (tags omitted).
UniProt Q96EP0: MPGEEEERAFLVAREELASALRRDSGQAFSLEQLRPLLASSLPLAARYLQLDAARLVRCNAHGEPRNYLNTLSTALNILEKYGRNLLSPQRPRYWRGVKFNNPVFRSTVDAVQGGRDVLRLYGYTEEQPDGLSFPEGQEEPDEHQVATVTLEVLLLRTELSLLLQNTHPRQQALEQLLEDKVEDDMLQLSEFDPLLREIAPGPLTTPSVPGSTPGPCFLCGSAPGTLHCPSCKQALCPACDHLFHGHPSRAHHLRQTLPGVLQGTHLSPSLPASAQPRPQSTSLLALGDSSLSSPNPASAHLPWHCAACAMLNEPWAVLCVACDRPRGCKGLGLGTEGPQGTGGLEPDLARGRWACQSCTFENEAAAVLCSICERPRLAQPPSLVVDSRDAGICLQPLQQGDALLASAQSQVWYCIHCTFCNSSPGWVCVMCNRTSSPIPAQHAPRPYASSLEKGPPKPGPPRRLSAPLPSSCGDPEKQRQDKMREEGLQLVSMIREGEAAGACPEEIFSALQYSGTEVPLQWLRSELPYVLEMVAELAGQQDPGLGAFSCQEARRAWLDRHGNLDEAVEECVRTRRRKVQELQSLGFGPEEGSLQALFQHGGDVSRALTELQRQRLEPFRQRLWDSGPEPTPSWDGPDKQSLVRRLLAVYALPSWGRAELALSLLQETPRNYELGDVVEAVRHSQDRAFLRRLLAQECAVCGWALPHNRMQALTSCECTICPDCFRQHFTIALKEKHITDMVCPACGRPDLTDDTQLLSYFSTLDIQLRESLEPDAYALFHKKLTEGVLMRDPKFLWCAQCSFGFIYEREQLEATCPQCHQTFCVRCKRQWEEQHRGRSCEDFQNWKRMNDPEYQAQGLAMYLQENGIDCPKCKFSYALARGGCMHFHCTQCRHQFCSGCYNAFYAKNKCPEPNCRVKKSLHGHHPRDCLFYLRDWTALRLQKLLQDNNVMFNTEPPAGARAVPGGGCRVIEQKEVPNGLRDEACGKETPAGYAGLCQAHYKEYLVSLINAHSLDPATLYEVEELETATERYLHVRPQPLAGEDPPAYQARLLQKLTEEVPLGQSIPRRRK

In assay [2] the target is T2, Flag-tagged SHARPIN WT (SHANK-associated RH Domain Interactor) (UniProt Q9H0F6).
T2 sequence: T1 sequence with W274R
The description is as above.

Residue numbers refer to the chain shown, from its start. No constants are given. Whether binding was seen depends on the method and setting. In cells and extracts the contact can be indirect. Some results given as binding are weak or reduced against the parent protein; the word gives no strength. Where a sequence is shown, tags or fusion partners need not be part of it.

For the substance “Myc-tagged HOIP WT (HOIL-1-interacting protein) (from UniProt Q96EP0 1-1072)”, the binding entry in assay [1] and in assay [2] was “binds” throughout.

The record behind these values is article PMC8595886.
